Values of other authors, collected in patent US20090082322A1, “Gender Differences in Experimental Aortic Aneurysm Formation” (THE REGENTS OF THE UNIVERSITY OF MICHIGAN, priority 2004, published 2009).
At least one structure is not confirmed: it was looked up by name or label, or the drawing left a doubt.

Tests used:
MMP-9 = details: in vivo, short- and long-term; cited from earlier work
[1] = system: experimental AAA formation; details: various rodent models, doses relevant to humans; cited from earlier work

SMILES: C[C@H]1c2cccc(O)c2C(=O)C2=C(O)[C@]3(O)C(=O)C(C(N)=O)=C(O)[C@@H](N(C)C)[C@@H]3[C@@H](O)[C@@H]21 [Doxycycline]
- human plasma MMP-9 levels (MMP-9): decreased
- experimental AAA formation [1]: inhibited experimental AAA formation
